Taken from: PubChem BioAssay AID1224828 (NIAID, 2016)
This is a random part of about 17,000 deposited reagents. 762 of all reagents (4.5%) count as active. 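Active calls include both raised and lowered p65 entry, mostly lowered; wells with fewer than 50 cells lack a z-score.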 Raw values vary from plate to plate and are shown uncorrected. Unmarked entries are inactive. Reagent sequences are not shown.

Test: 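Knock-downs that increase or decrease LPS-induced p65 nuclear translocation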 (primary screen)
Cell system: mouse RAW264.7 G9 macrophage reporter cells (GFP-p65, Tnf promoter-mCherry)
Reagent: siRNA pool against mouse genes, 100 nM
Timing: 2 days siRNA transfection, then 40 min LPS before fixation
Conditions: LPS (Salmonella minnesota R595) at 10 ng/ml
Detection: 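Imaged p65 nuclear translocation ratio, normalised to the plate median, converted to robust z-scores and averaged across two replicates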
Direction: p65 translocation robust z-score: higher = more nuclear NF-kappaB p65 after LPS than the plate median; nuclear/cytoplasmic p65 ratio: higher = more nuclear NF-kappaB p65
Hit rule: 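Active if robust z is above 3.3 (negative regulators) or below -1.56, the Tlr4 control median (positive regulators); activity score 50 or more; control wells not called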
Meaning of the calls: active = hit (p65 shift raised or lowered); inactive = no clear change

| gene symbol | PubChem SID | p65 translocation robust z-score | nuclear/cytoplasmic p65 ratio, rep 1 | nuclear/cytoplasmic p65 ratio, rep 2 | low cell count flag |
| --- | --- | --- | --- | --- | --- |
| Atp6v0b (ATPase, H+ transporting, lysosomal V0 subunit B) | SID315476999 | -0.56 | 1.52 | 1.43 | enough cells to score |
| Cc2d1a (coiled-coil and C2 domain containing 1A) | SID315477723 | -0.18 | 1.49 | 1.89 | enough cells to score |
| Psd3 (pleckstrin and Sec7 domain containing 3) | SID315479152 | -0.08 | 1.58 | 1.51 | enough cells to score |
| Psd3 (pleckstrin and Sec7 domain containing 3) | SID315479153 | -0.72 | 1.5 | 1.69 | enough cells to score |
| Lcn9 (lipocalin 9) | SID315475502 | 0.22 | 1.5 | 1.53 | enough cells to score |
| Nol6 (nucleolar protein family 6 (RNA-associated)) | SID315478758 | 2.24 | 2.07 | 1.84 | enough cells to score |
| Acaa2 (acetyl-CoA acyltransferase 2) | SID315470976 | 0.27 | 1.57 | 1.73 | enough cells to score |
| Nr4a3 (nuclear receptor subfamily 4, group A, member 3) | SID315468206 | -1.13 | 1.31 | 1.25 | enough cells to score |
| Syf2 (SYF2 homolog, RNA splicing factor (S. cerevisiae)) | SID315473575 | 2.53 | 1.68 | 2.07 | enough cells to score |
| Zswim4 (zinc finger SWIM-type containing 4) | SID315477726 | -0.63 | 1.35 | 1.16 | enough cells to score |
| Efs (embryonal Fyn-associated substrate) | SID315466455 | 0.2 | 1.48 | 1.41 | enough cells to score |
| Pnck (pregnancy upregulated non-ubiquitously expressed CaM kinase) | SID315475982 | – | 1.37 | 1.08 | fewer than 50 cells per well; well left out of scoring |
| Dtnbp1 (dystrobrevin binding protein 1) | SID315476073 | 0.03 | 1.5 | 1.36 | enough cells to score |
| Samsn1 (SAM domain, SH3 domain and nuclear localization signals, 1) | SID315473203 | – | 1.4 | 1.55 | fewer than 50 cells per well; well left out of scoring |
| Cenpi (centromere protein I) | SID315476353 | 0.32 | 1.68 | 1.47 | enough cells to score |
| Itga5 (integrin alpha 5 (fibronectin receptor alpha)) | SID315467507 | -0.74 | 1.44 | 1.23 | enough cells to score |
| Ovgp1 (oviductal glycoprotein 1) | SID315465959 | – | 1.44 | 1.24 | fewer than 50 cells per well; well left out of scoring |
| Oas1g (2'-5' oligoadenylate synthetase 1G) | SID315470255 | 0.26 | 1.47 | 1.46 | enough cells to score |
| Cst7 (cystatin F (leukocystatin)) | SID315466181 | -1.88 (active) | 1.31 | 1.06 | enough cells to score |
| Reck (reversion-inducing-cysteine-rich protein with kazal motifs) | SID315471091 | 0.25 | 1.44 | 1.66 | enough cells to score |
| Acss1 (acyl-CoA synthetase short-chain family member 1) | SID315473622 | -0.03 | 1.6 | 1.68 | enough cells to score |
| Or2n1c (olfactory receptor family 2 subfamily N member 1C) | SID315480020 | -0.4 | 1.5 | 1.37 | enough cells to score |
| Phka1 (phosphorylase kinase alpha 1) | SID315468496 | 0.77 | 1.92 | 1.39 | enough cells to score |
| Nap1l3 (nucleosome assembly protein 1-like 3) | SID315471254 | 1.63 | 1.79 | 2.05 | enough cells to score |
| Txnl4b (thioredoxin-like 4B) | SID315479188 | -1.17 | 1.4 | 1.38 | enough cells to score |
| Saxo4 (stabilizer of axonemal microtubules 4) | SID315473207 | – | 1.47 | 1.21 | fewer than 50 cells per well; well left out of scoring |

Limited to “nuclear/cytoplasmic p65 ratio, rep 1”, for 2 of the entries above:
Psd3 (pleckstrin and Sec7 domain containing 3) [SID315479153] = 1.5
Lcn9 (lipocalin 9) [SID315475502] = 1.5

The list goes on.
| gene symbol | PubChem SID | p65 translocation robust z-score | nuclear/cytoplasmic p65 ratio, rep 1 | nuclear/cytoplasmic p65 ratio, rep 2 | low cell count flag |
| --- | --- | --- | --- | --- | --- |
| Pparg (peroxisome proliferator activated receptor gamma) | SID315468646 | 0.44 | 1.56 | 1.46 | enough cells to score |
| Lyrm1 (LYR motif containing 1) | SID315474803 | – | 1.25 | 1.21 | fewer than 50 cells per well; well left out of scoring |
| Orai1 (ORAI calcium release-activated calcium modulator 1) | SID315476821 | – | 1.25 | 1.28 | fewer than 50 cells per well; well left out of scoring |
| Wdr41 (WD repeat domain 41) | SID315478195 | 0.46 | 1.62 | 1.95 | enough cells to score |
| Coq10b (coenzyme Q10B) | SID315473280 | 0.66 | 1.59 | 1.51 | enough cells to score |
| Tmed2 (transmembrane p24 trafficking protein 2) | SID315471464 | 0.59 | 1.67 | 1.48 | enough cells to score |
| Padi6 (peptidyl arginine deiminase, type VI) | SID315479646 | 0.69 | 1.52 | 1.33 | enough cells to score |
| Tpr (translocated promoter region, nuclear basket protein) | SID315476769 | -1.05 | 1.34 | 1.38 | enough cells to score |
| Klf15 (Kruppel-like transcription factor 15) | SID315472336 | -0.39 | 1.5 | 1.26 | enough cells to score |
| Rpl7a (ribosomal protein L7A) | SID315470540 | – | 1.7 | 1.24 | fewer than 50 cells per well; well left out of scoring |
| Fcho1 (FCH domain only 1) | SID315474813 | 1.73 | 1.82 | 1.72 | enough cells to score |
| Cdh1 (cadherin 1) | SID315465894 | 3.3 | 2.01 | 1.72 | enough cells to score |
| Haus8 (4HAUS augmin-like complex, subunit 8) | SID315475321 | -0.39 | 1.28 | 1.41 | enough cells to score |
| BC002118 (retired record) | SID315475698 | 0.29 | 1.51 | 2.02 | enough cells to score |
